This passage reports log2 fold change results from the supplement of paper PMC10849652.

Chains of the proteins cited; added tags and fusions are not shown. Lines headed by an entry give the natural chain unless they say otherwise; changes in a name come on top.
UniProt P50552: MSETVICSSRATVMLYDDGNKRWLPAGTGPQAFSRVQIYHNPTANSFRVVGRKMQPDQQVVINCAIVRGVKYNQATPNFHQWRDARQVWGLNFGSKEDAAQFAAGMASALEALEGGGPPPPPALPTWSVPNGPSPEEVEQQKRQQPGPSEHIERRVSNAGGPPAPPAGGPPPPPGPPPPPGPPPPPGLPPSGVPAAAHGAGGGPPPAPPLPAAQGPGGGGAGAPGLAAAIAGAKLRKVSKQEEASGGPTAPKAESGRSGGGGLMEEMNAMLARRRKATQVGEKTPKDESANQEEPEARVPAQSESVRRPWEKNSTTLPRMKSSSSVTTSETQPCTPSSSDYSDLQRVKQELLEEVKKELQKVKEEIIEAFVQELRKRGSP
UniProt Q9HA47: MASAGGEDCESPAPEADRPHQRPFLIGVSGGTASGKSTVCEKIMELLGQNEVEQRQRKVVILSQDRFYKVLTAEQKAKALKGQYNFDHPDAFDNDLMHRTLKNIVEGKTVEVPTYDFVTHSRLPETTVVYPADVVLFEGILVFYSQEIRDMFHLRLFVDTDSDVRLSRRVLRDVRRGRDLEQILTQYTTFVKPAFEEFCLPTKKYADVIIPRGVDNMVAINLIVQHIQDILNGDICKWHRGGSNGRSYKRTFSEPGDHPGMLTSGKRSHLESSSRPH
UniProt Q9NZ43: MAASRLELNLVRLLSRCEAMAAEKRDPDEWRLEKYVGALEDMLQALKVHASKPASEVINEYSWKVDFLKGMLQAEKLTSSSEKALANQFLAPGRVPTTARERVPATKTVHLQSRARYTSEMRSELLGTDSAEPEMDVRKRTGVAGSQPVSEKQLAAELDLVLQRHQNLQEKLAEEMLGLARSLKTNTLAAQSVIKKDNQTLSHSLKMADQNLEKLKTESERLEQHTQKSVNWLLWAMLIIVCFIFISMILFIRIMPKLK
UniProt Q15386: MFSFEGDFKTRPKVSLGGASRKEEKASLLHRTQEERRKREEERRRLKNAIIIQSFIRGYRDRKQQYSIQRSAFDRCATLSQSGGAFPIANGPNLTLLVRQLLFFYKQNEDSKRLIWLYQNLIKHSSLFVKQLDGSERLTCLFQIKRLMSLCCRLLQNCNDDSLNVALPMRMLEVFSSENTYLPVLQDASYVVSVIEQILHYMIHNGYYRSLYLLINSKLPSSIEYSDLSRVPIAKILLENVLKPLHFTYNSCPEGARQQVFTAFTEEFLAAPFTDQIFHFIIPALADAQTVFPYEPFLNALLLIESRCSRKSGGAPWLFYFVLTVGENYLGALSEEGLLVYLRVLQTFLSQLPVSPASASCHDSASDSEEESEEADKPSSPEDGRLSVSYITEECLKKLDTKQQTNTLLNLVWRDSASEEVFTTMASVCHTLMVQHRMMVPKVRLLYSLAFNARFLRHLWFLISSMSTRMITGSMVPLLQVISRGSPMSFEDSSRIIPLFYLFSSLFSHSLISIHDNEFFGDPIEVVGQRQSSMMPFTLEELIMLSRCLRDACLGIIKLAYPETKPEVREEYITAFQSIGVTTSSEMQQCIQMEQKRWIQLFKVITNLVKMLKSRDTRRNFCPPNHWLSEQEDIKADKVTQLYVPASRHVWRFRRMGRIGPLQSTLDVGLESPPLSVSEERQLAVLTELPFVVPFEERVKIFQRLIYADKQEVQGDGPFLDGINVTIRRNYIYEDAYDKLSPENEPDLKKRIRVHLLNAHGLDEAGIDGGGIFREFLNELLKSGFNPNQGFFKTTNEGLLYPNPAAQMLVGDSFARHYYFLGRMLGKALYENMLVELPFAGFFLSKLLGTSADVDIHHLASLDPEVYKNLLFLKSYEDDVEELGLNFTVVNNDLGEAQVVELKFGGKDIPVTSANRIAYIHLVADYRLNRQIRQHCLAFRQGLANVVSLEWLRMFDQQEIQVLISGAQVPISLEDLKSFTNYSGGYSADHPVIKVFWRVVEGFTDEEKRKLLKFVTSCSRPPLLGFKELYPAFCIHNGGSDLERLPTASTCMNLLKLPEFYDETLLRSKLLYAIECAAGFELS
UniProt Q8N806: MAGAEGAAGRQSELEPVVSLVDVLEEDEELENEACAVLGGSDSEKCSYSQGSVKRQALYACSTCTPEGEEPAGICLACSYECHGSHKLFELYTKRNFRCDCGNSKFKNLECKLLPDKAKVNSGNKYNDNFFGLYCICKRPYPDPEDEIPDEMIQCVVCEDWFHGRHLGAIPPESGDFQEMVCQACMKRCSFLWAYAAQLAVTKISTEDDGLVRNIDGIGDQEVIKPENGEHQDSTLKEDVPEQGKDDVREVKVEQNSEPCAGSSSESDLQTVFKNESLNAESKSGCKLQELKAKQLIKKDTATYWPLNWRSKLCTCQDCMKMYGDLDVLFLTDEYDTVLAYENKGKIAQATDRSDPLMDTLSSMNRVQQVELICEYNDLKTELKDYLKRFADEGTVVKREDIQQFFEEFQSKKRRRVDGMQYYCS
UniProt Q9UHD9, whole entry, looked up: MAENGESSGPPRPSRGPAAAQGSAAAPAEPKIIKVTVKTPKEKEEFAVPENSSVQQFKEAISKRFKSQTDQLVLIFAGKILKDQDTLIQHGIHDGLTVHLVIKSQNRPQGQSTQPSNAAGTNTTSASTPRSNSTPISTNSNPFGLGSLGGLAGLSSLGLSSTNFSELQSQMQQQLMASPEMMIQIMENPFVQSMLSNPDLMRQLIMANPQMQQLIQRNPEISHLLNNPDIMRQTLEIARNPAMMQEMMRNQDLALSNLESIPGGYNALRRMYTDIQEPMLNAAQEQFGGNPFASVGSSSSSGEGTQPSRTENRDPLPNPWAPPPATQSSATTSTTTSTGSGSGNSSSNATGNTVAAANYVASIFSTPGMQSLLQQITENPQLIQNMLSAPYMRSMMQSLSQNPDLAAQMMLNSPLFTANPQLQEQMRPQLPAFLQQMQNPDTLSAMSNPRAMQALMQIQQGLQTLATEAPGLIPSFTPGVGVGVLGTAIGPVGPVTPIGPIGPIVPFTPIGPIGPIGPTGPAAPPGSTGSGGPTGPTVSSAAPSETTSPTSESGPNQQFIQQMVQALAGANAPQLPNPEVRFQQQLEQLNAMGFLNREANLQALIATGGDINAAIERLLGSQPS
UniProt Q6BDS2: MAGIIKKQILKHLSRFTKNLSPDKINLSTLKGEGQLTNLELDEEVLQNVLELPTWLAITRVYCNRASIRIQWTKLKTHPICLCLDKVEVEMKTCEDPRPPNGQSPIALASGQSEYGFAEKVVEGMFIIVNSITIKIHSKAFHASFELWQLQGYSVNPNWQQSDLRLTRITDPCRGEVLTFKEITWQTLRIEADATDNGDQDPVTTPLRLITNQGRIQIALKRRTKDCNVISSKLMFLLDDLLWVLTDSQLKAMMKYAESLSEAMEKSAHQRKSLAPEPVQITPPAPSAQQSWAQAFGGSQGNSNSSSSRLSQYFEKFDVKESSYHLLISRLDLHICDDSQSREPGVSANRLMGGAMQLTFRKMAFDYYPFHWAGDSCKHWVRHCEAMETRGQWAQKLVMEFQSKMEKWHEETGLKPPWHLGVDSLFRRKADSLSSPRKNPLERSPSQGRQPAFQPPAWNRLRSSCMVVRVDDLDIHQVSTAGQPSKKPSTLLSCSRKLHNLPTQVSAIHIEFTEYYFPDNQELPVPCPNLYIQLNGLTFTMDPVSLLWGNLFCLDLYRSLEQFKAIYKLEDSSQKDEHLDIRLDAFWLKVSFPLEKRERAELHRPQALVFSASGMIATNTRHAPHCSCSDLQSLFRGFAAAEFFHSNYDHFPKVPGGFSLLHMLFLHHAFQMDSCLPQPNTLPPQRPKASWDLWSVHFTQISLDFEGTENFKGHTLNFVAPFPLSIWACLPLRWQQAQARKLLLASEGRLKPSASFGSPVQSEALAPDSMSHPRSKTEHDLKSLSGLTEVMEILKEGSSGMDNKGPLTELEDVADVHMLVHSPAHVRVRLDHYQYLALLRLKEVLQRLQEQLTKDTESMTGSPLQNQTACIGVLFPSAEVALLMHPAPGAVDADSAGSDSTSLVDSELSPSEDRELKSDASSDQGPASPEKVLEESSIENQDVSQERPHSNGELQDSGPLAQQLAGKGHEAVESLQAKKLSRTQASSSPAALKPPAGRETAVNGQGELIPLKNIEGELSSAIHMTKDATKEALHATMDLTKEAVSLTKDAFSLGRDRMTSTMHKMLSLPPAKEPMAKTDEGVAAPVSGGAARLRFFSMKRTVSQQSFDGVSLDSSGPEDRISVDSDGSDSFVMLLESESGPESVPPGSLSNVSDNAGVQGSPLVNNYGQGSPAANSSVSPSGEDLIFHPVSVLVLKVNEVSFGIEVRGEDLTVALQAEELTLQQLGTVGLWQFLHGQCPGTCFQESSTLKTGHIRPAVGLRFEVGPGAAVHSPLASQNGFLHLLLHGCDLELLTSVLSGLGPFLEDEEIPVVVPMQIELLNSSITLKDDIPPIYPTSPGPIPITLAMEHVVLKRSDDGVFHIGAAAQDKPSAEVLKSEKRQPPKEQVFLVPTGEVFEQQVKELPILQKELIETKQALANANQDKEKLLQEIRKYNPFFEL
UniProt Q70CQ3: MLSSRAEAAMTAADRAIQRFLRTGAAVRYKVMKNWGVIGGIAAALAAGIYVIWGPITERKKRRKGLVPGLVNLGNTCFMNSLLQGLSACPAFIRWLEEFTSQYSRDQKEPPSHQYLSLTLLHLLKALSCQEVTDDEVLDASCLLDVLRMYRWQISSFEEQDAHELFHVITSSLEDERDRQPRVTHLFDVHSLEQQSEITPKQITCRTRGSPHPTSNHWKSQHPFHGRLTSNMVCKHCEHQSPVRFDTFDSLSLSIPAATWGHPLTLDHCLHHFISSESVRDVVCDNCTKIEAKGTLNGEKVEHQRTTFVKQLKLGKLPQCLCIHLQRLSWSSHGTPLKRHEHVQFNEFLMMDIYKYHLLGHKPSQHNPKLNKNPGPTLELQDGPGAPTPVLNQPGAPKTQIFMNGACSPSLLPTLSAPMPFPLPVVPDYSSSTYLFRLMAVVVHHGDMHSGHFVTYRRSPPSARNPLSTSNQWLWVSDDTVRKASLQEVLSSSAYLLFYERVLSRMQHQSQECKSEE
UniProt P61960, whole entry, looked up: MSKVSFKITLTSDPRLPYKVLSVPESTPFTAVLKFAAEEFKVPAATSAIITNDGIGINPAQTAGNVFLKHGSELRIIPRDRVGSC
UniProt Q93009, whole entry, looked up: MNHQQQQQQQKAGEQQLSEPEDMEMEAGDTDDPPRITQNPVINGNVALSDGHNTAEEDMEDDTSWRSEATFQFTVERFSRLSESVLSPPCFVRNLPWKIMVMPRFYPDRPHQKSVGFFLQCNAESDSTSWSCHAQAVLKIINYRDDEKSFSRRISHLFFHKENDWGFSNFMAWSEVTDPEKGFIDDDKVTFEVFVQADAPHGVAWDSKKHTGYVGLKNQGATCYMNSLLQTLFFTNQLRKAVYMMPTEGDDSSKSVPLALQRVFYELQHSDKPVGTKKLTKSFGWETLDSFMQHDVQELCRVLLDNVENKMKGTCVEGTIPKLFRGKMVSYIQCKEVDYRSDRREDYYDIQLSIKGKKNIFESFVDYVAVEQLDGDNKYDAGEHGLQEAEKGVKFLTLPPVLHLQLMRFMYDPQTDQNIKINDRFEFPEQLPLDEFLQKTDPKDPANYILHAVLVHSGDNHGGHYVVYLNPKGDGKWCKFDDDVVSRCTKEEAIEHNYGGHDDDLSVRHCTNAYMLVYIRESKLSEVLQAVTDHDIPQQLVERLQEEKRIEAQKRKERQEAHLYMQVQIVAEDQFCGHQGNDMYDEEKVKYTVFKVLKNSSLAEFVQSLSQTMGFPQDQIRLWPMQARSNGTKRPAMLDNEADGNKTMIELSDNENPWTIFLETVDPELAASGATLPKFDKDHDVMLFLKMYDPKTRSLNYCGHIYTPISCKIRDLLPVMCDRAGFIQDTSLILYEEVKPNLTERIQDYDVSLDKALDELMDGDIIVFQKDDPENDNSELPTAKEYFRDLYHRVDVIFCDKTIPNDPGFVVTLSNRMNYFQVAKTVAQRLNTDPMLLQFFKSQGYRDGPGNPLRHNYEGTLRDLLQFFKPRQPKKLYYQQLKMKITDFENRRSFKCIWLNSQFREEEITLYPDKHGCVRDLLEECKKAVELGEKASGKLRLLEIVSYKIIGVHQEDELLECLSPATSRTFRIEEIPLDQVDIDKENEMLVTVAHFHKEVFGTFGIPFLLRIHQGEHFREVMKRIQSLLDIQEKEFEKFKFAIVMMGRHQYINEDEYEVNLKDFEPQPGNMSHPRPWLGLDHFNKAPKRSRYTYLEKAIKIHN
UniProt Q9P0L0: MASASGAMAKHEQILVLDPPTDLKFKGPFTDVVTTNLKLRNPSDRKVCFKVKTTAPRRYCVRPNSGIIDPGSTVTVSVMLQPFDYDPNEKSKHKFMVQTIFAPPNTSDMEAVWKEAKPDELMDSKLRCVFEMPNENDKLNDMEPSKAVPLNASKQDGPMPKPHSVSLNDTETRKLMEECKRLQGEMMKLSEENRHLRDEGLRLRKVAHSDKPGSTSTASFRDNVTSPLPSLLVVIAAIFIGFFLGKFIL

The other results are listed elsewhere or left out.

Compound in the assay: C1CN(CCC1(CC2=CC=C(C=C2)Cl)N)C3=NC=NC4=C3C=CN4
Briefly: log2 fold change, soluble protein after heating vs DMSO (PISA); higher = thermal stabilisation; K562 cells, 10 uM, 30 min; active = over 0.2 and 3.5 SD of the protein, either way, in both replicates (recomputed). In a few lines: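 K562 cells at 2×10^6 cells/mL were given 10 μM compound for 30 min. Aliquots then went through 3 min of heating across 48°C-58°C, were pooled, and were extracted in PBS with 0.5% NP-40 at 4°C, and the supernatant after 21,000xg for 90 min was quantified by TMTpro 16plex LC-MS/MS with channel sums equalised. Thermal stability relative to control samples, from duplicates, is given as log2 fold change.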
As to VASP (UniProt P50552), the log2 fold change is inactive: -0.174.

With UCK1 (UniProt Q9HA47), the log2 fold change is inactive: 0.044. For USE1 (UniProt Q9NZ43), the log2 fold change was inactive: 0.052. The value for UBE3C (UniProt Q15386) was inactive: 0.057; that for UBE4B isoform 4 (UniProt O95155) was inactive: -0.025. The value for UBR7 (UniProt Q8N806) was inactive: 0.058. As for UBQLN2 (UniProt Q9UHD9), the figure is inactive: 0.008; as for UHRF1BP1 (UniProt Q6BDS2), inactive: 0.008; as for UTP3 (UniProt Q9NQZ2), inactive: -0.203. USP30 (UniProt Q70CQ3): the log2 fold change was inactive: 0.009.

With UFM1 (UniProt P61960), the log2 fold change is inactive: 0.088. The value for USP7 (UniProt Q93009) was inactive: -0.003. As for UGGT1 (UniProt Q9NYU2), the figure is inactive: 0.005. The value for VAPA isoform 2 (UniProt Q9P0L0) was inactive: 0.042; that for VARS2, A0A0G2JL52 was inactive: -0.01; that for USP24 (UniProt Q9UPU5) was inactive: 0.297.
